# Results reported in patent publication US20130199313A1, “METHOD FOR EVALUATING THE SOLUBILITY OF A CRYSTALLINE SUBSTANCE IN A POLYMER” (Abbott GmbH & Co, KGW, priority 2010, published 2013).
# Test: Flory-Huggins fit of solute activity from annealing-method solubility data (interaction parameter χ)
# Type: physicochemical
# Details: polymer PVP K-12, Flory-Huggins fit
smiles,measurement,value
"COC(=O)C1=C(C)NC(C)=C(C(=O)OC)C1c1ccccc1[N+](=O)[O-] [NIF, nifedipine]",solute-solvent interaction parameter χ as determined with the method of the present invention,−2.5 ± 0.2
